Results reported in patent publication US20180021430A1 (UNIVERSITAETSKLINIKUM FREIBURG, published 2018).
These are yes or no findings as the source states them, for the method shown. Some entries that bind do so weakly or less than the wild type.

By UniProt entry, the sequences of proteins in these tests, tags left out. Residues count along the entry.
UniProt P29965, residues 108-261: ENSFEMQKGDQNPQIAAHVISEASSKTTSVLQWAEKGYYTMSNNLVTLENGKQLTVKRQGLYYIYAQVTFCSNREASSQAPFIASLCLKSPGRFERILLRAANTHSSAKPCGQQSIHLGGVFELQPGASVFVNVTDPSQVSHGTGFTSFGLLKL

Molecular target: CD40L (soluble CD40L used for coating, biotinylation or binding to CD40-Fc; preparation not specified) (UniProt P29965)
Assay: solid phase binding assay, peptide immobilized, biotinylated CD40L in solution

B1: peptide M7 (EQLKKSKTL) (peptide)
peptide: EQLKKSKTL
notes: linear fragment of the Mac-1 I-domain, E162-L170
binding: binds
